# In all, about 330,000 compounds went through this assay and about 7,700 (2.3%) were called active. The shares of active, inactive and inconclusive entries below differ from those in the screen. The call rests on the fitted dose curve; in most records, active means well fitted inhibition curve with a large enough effect; inconclusive means small, poorly fitted or top-dose-only effect, or effect the other way; inactive means flat fitted curve, though single readings scatter. Potencies of inconclusive entries are doubtful fits and often do not repeat.
# Assay: qHTS screen for small molecules that inhibit ELG1-dependent DNA repair in human embryonic kidney (HEK293T) cells expressing luciferase-tagged ELG1; further: nearly all actives have a fitted effect of over 55% in size
# Details: HEK293T ELG1-luciferase reporter, luminescence, 16 h, DNA damage induced by 5-fluorouridine; activity change, negative = inhibition: at 46.1 µM (top of the series)
# Procedure, shortened: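 Cells (2,000 per well) received 5-fluorouridine plus test compound or DMSO and were incubated 16 hr at 37 °C, 5% CO2. Luciferase activity was read by luminescence 30 min after ONE-Glo addition; signal suppression marked inhibition of damage-induced ELG1 function.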
# On the % scale 0 is the no-effect control and ±100 the full control effect; potency means the concentration at half of the fitted maximal effect.
Compound,Potency,"activity change, negative = inhibition"
COc1cccc(NC(=O)CN(C)C(=O)c2cc(-c3ccco3)nc3ccccc23)c1,"inconclusive: 14.6 µM [inhibitor, single point]",–
CS(=O)(=O)Nc1ccc(C(=O)Nc2ccc3c(c2)OCCO3)cc1,"inconclusive: 11.6 µM [activator, partial curve]",–
NC(=O)c1c(NC(=O)c2ccccc2)sc2c1CCc1ccccc1-2,"inconclusive: 2.91 µM [activator, full curve]",–
COc1ccccc1C(=O)Nc1ccc2c(c1)nc(CCNC(C)=O)n2C,"inconclusive: 16.4 µM [activator, partial curve]",–
COc1ccccc1C(=O)N=C1SC2CS(=O)(=O)CC2N1c1ccccc1 (configuration not stated),"inconclusive: 29.1 µM [activator, single point]",–
COc1ccc(F)cc1-c1nc(N)nc(N)n1,"inconclusive: 25.9 µM [activator, partial curve, poor fit]",–
O=C(Cc1nnc(NC(=O)Nc2ccccc2F)s1)NCc1ccccc1,"inconclusive: 29.1 µM [activator, single point]",–
CC(C)=CCC[C@](C)(O[C@@H]1O[C@H](CO[C@@H]2OC[C@@H](O)[C@H](O)[C@H]2O)[C@@H](O)[C@H](O)[C@H]1O)C1CC[C@]2(C)C1[C@H](O)CC1[C@@]3(C)CC[C@H](O[C@@H]4O[C@H](CO)[C@@H](O)[C@H](O)[C@H]4O)C(C)(C)C3CC[C@]12C (some centres not stated),"inconclusive: 29.1 µM [activator, single point]",–
COc1ccc(-c2csc(NC(=O)c3cc(C)oc3C)n2)cc1OC,active: 18.3 µM,–
O=C(CN1CCN(c2ccc(O)cc2)CC1)Nc1ccccc1C(=O)NCCc1ccccc1,"inconclusive: 2.82 µM [inhibitor, full curve, poor fit]",–
Cn1c(=O)c([N+](=O)[O-])c(N2CCN(Cc3ccc4c(c3)OCO4)CC2)c2ccccc21,"inconclusive: 8.2 µM [inhibitor, partial curve, poor fit]",–
CSc1ccccc1NC(=O)c1cc(-c2ccc3c(c2)OCO3)on1,"inconclusive: 8.2 µM [activator, partial curve]",–
CN(C(=O)COC(=O)CNC(=O)C12CC3CC(CC(C3)C1)C2)C1CCS(=O)(=O)C1 (configuration not stated),–,inactive: 22.8%
Cc1cc(Cl)c(S(=O)(=O)Nc2ccc3c(c2)OCO3)cc1OCC(=O)NC1CCCCC1,"inconclusive: 23.1 µM [inhibitor, single point]",–
CCOC(=O)c1c(C)nc2c(c1-c1ccc(OC)cc1)C(=O)CC(C)(C)C2,"inconclusive: 5.17 µM [inhibitor, partial curve, poor fit]",–
CN(C(=O)c1ccco1)c1nc(-c2ccc(F)cc2)cs1,"inconclusive: 5.17 µM [activator, partial curve]",–
COc1ccc(CNc2nc3c(c(=O)n(Cc4ccc(F)cc4)c(=O)n3C)n2C)cc1,active: 18.4 µM,–
COc1ccccc1N1CCN(/N=C/C=C/c2ccccc2[N+](=O)[O-])CC1,"inconclusive: 18.3 µM [inhibitor, single point]",–
NC(=O)COC(=O)c1ccc2c(c1)S(=O)(=O)N=C1CCCCCN12,"inconclusive: 29.1 µM [activator, partial curve, poor fit]",–

# A different layout for part of the listing above.
Compound	Potency	activity change, negative = inhibition
O=C(Cc1nnc(NC(=O)Nc2ccccc2F)s1)NCc1ccccc1	inconclusive: 29.1 µM [activator, single point]	–
CC(C)=CCC[C@](C)(O[C@@H]1O[C@H](CO[C@@H]2OC[C@@H](O)[C@H](O)[C@H]2O)[C@@H](O)[C@H](O)[C@H]1O)C1CC[C@]2(C)C1[C@H](O)CC1[C@@]3(C)CC[C@H](O[C@@H]4O[C@H](CO)[C@@H](O)[C@H](O)[C@H]4O)C(C)(C)C3CC[C@]12C (some centres not stated)	inconclusive: 29.1 µM [activator, single point]	–

# Additional results follow:

Compound,Potency,"activity change, negative = inhibition"
CC(=O)c1cnc(-c2ccccn2)s1,–,inactive: -1.29%
C/C(=N\NC(=O)Cn1nc(C)c([N+](=O)[O-])c1C)c1ccco1,"inconclusive: 5.8 µM [activator, full curve, poor fit]",–
COc1ccc(-n2c3c(cc(C#N)c2=O)C(=O)CCC3)cc1,–,inactive: 20.6%
COc1cc(NC(=O)c2cccs2)c(C(=O)OCC(=O)c2cc(C)n(-c3ccc(F)cc3)c2C)cc1OC,"inconclusive: 16.4 µM [activator, partial curve]",–
CNC[C@H](Cc1ccccc1)NC[C@@H](Cc1cccc2ccccc12)NCCc1ccc(C)cc1,"inconclusive: 29.1 µM [inhibitor, single point]",–
CCOC(=O)c1[nH]c2ccc(OCC)cc2c1CCCN1C(=O)c2ccccc2C1=O,"inconclusive: 9.2 µM [inhibitor, partial curve]",–
CCc1ccc(C(=O)NNC(=O)C2CCN(c3ncnc4sc(C)c(C)c34)CC2)cc1,"inconclusive: 25.9 µM [inhibitor, single point]",–
Cc1ccnc(NS(=O)(=O)c2ccc(Oc3ccccc3)cc2)c1,"inconclusive: 20.6 µM [inhibitor, partial curve]",–
CCOc1cc(C(=O)N2CCC(CC3CC(c4ccc(Cl)cc4)=NO3)(C(=O)NCC3CCCCC3)CC2)cc(OCC)c1OCC (configuration not stated),"inconclusive: 0.517 µM [activator, partial curve]",–
Cc1ccc(OCCn2cnc3cc([N+](=O)[O-])ccc3c2=O)cc1,active: 20.6 µM,–
CCOc1ccc2[nH]c3c(NCC(C)C)ncnc3c2c1,"inconclusive: 20.6 µM [inhibitor, partial curve, poor fit]",–
CN(C)C(CNC(=O)c1cc2ccccc2oc1=O)c1ccccc1 (configuration not stated),"inconclusive: 14.6 µM [activator, partial curve]",–
O=C(N[C@@H]1CCC(=O)N(CC[C@H](Oc2ccccc2)c2ccccc2)CC1)OCc1ccccc1,"inconclusive: 25.9 µM [inhibitor, single point]",–
C=CCn1c(=O)/c(=C2/Sc3cc(OC)ccc3N2C)s/c1=C1\C(=O)N(CC)C(=S)N1C,"inconclusive: 2.31 µM [inhibitor, partial curve, poor fit]",–
CN(C)S(=O)(=O)c1ccc(C(=O)Nc2ccc3nc(N4CCOCC4)sc3c2)cc1,–,inactive: 14.2%
COc1cc(-c2nc(CN3CCCCC3CCNC(C)=O)c(C)o2)ccc1F (configuration not stated),"inconclusive: 25.9 µM [activator, single point]",–
Cc1ccnc(NC(=O)c2ccc3c(c2)NC(=O)C(C)S3)c1 (configuration not stated),"inconclusive: 1.16 µM [activator, partial curve, poor fit]",–
C/C(=N/NC(=O)c1ccccn1)c1ccc(O)cc1,"inconclusive: 16.4 µM [activator, partial curve]",–

# Source: PubChem BioAssay AID504467 (National Center for Advancing Translational Sciences (NCATS), 2011)
